Measured values reported in the supplement of paper PMC3334620.
The full ranking holds about 33,000 sequences; the median of “E-score (-0.5 to 0.5)” is about -0.015, and the highest 2% start at about 0.3. The list shows a part of the results.

target: T1, Abf1 (UniProt P14164); assay: PBM E-score (8-mer binding enrichment) (E-score (-0.5 to 0.5)); higher = stronger / more preferred TF binding; details: protein concentration: 200 nM; construct: GST-full length
T1 sequence: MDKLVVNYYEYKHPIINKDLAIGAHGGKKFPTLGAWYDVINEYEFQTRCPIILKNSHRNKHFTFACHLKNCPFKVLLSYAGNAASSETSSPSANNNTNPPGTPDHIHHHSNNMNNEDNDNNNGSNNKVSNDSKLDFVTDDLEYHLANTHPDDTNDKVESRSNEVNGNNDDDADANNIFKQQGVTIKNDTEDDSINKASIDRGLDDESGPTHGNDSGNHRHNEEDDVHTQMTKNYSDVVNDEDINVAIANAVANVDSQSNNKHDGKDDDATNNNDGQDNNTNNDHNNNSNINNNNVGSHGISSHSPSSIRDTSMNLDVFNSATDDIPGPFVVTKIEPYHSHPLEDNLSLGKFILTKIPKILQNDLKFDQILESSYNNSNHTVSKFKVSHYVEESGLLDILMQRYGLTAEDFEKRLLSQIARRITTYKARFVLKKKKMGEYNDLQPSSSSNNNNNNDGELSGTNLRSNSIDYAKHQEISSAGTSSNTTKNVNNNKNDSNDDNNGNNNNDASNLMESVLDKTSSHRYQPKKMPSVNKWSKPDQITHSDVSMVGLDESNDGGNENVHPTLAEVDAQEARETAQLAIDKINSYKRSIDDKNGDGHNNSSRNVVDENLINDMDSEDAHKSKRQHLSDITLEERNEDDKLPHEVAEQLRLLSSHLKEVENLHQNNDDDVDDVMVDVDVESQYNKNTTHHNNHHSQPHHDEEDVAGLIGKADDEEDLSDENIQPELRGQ
Description: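 Universal 'all 10-mer' protein binding microarrays (Agilent AMADID 015681) probed with GST-tagged S. cerevisiae TFs (full-length or DBD) made by in vitro transcription/translation (PURExpress), about 100-200 nM. Bound TF was detected with fluorescent anti-GST. Each ungapped 8-mer (which stands for itself and its reverse complement) is scored by the PBM enrichment score (E-score), a modified Wilcoxon-Mann-Whitney statistic from -0.5 to +0.5, computed with the Universal PBM Analysis Suite. Scale: above 0.35 generally sequence-specific binding.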

Row | Sequence | PBM E-score
1 | TCCCACCA | -0.167
2 | GATAGCAC | 0.00749
3 | CAGGCATA | 0.0594
4 | GGGACGGA | -0.0422
5 | AAGTACGA | 0.151
6 | CACACTAA | 0.0798
7 | ACTCGTAT | 0.305
8 | AGAGACCC | -0.221
9 | AGGCTGAA | -0.0655
10 | GTGAGCGA | 0.13
11 | CAGGAGCG | 0.0108
12 | CCGTCTCC | -0.0673
13 | AAGGGTGA | 0.0177
14 | GACCGTGC | 0.108
15 | GAGCGAAA | 0.172
16 | CCCAGACC | -0.232
17 | CGAGTCCA | -0.247
18 | ACTTAACT | -0.0639
19 | CAATGGAC | 0.16
20 | CTCGGGCC | -0.183
21 | CTGGGCTC | -0.261
22 | CCGCCCAG | -0.142
23 | GACTGCTA | -0.2
24 | ACTGCATA | -0.0281
25 | ATTTAGCG | 0.0162

Row | Sequence | PBM E-score
26 | ACCACAAC | -0.0325
27 | GCCGAAGA | 0.0287
28 | GGGGCAAA | -0.098
29 | AAATGCCT | -0.0261
30 | GACATGTA | 0.17
31 | CATCTAAA | -0.0455
32 | ACTGCAAC | -0.129
33 | GCCTAGCA | -0.156
34 | AATATCCT | -0.0411
35 | GTCCATAA | -0.0217
36 | ATCCGGTC | -0.147
37 | CCGGTCAG | -0.196
38 | AGCGCCCA | -0.195
39 | GAAGTGAA | 0.064
40 | GTCCGCTA | -0.0723
41 | ACTAGGTG | -0.211
42 | ATCTTACC | 0.115
43 | GCATAGGA | -0.0459
44 | ATCTCCCA | 0.115
45 | GCGCATAA | 0.0993
46 | ATTAGGTA | 0.113
47 | GCGCCGCA | 0.0535
48 | CCGCGGCC | 0.0472
49 | CGCTGCCG | -0.0244
50 | TAACTAAA | -0.0174

Row | Sequence | PBM E-score
51 | GACGGGCC | -0.0134
52 | CAGAGTAC | 0.0802
53 | ACGTCTTA | 0.223
54 | GCTAAAAA | 0.0945
55 | AGAATCTG | -0.0507
56 | CACGCATA | 0.0214
57 | CAACGCTG | -0.18
58 | TGCCTAAA | -0.143
59 | AGCGTTTA | -0.153
60 | CTGCAGGA | 0.0199
61 | CATACACG | 0.181
62 | AATAGCGT | 0.0567
63 | TCCGAGAA | 0.0043
64 | GAATGACA | 0.311
65 | GTAAGCGA | 0.135
66 | CCATAAAC | 0.0167
67 | CAGGTAAG | -0.0344
68 | CGAGCTCA | 0.00045
69 | AGGCGGTA | -0.0876
70 | AAGAATGT | 0.199
71 | CGACCCGA | -0.165
72 | CCAGGCGG | -0.284
73 | AGACGCGC | -0.103
74 | GGTCCCAC | -0.137
75 | GGGTGGCA | -0.095

Reprinted: entries 57–63
Row | Sequence | PBM E-score
57 | CAACGCTG | -0.18
58 | TGCCTAAA | -0.143
59 | AGCGTTTA | -0.153
60 | CTGCAGGA | 0.0199
61 | CATACACG | 0.181
62 | AATAGCGT | 0.0567
63 | TCCGAGAA | 0.0043

Further entries.

Row | Sequence | PBM E-score
76 | AGGTCGAA | -0.0499
77 | GGTTACGA | 0.0663
78 | ATGGGGTG | -0.064
79 | CAGCGAAA | -0.136
80 | CACTTTAC | -0.0137
81 | ATTAAGGC | 0.0843
82 | CGTCTAAC | 0.225
83 | CTAATCAA | 0.025
84 | AGGACGCC | -0.078
85 | CCCTTTCA | -0.148
86 | GTGGCCTA | -0.143
87 | ATTACAAG | 0.103
88 | CACGGGGA | -0.137
89 | ACATTATA | 0.0936
90 | CTCTTCCA | -0.0292
91 | GCTAATAC | 0.0155
92 | CCGTATCA | 0.28
93 | ATGAATCA | 0.103
94 | GACAAGTC | 0.0377
95 | TTGATAAA | 0.23
96 | ATAACGGG | 0.0588
97 | CTGTTTAA | -0.163
98 | ATACCGGC | 0.0536
99 | AGTACGGG | 0.0191
100 | TAAGCTAA | 0.174

Row | Sequence | PBM E-score
101 | CCTTCGTA | 0.292
102 | CTTTCGGC | -0.248
103 | CACATCTG | -0.183
104 | AATCGCAA | -0.0324
105 | AAACAAAG | -0.0583
106 | ATGGATAC | 0.114
107 | AAGTAAAC | -0.0812
108 | GTCGCCAC | 0.0471
109 | AGGCACCG | -0.14
110 | GAGAGGCA | -0.176
111 | CCACACCA | 0.0401
112 | CGATAGTC | 0.181
113 | TCATTTAA | 0.121
114 | CGTGGCAA | -0.0194
115 | GTACCGAC | -0.0724
116 | AGAACTCT | -0.129
117 | TCTGGTAA | -0.0108
118 | CCGTTGAA | 0.0872
119 | CAGAATCC | -0.0308
120 | ACTAAACC | 0.0376
121 | ACGAGTGC | 0.154
122 | TATAACGA | 0.282
123 | ATCGGCTA | -0.137
124 | CCCACCTA | -0.125
125 | CATATAGC | -0.0946

Row | Sequence | PBM E-score
126 | GCGTAACC | -0.00117
127 | ATGGTTAC | -0.0718
128 | CGCCACCA | -0.138
129 | CGACTTAC | -0.147
130 | GGATTGGA | -0.0447
131 | ACAGTAAA | -0.0655
132 | AAGGGCAG | -0.201
133 | GAGTGACC | 0.207
134 | GGCAATTA | -0.0787
135 | ATGAGGAG | -0.0674
136 | AGAAGCCA | 0.0533
137 | ATCGATGC | 0.00132
138 | CCCGTCAC | 0.0669
139 | AGCGGCAT | 0.0563
140 | CCGACTAG | -0.261
141 | AAATTTAT | 0.272
142 | CTTAATGA | 0.157
143 | GACGATAA | 0.363
144 | GATCTTCC | 0.068
145 | AATCACGG | 0.213
146 | AGTATCAC | 0.188
147 | TTCACCAA | -0.0311
148 | GTCCAGGA | 0.0731
149 | GCATTTCC | -0.0654
150 | CGGCACAG | -0.129

Row | Sequence | PBM E-score
151 | GAGATTTA | 0.0781
152 | AACACTAC | -0.0369
153 | ATGCGGAA | -0.0563
154 | CCACACGG | 0.176
155 | GTCGTACA | 0.383
156 | AGAATCGC | 0.0699
157 | CACTATGC | 0.142
158 | ACGCCAAA | 0.0414
159 | CAAAGCTA | 0.0117
160 | AGCCGTGC | 0.163
161 | ACTTAATA | 0.0767
162 | CCGCGAAA | -0.00148
163 | GGATTGAC | 0.0426
164 | GTTACCCA | -0.218
165 | ATATGCAC | -0.00963
166 | AGGTGGTC | -0.188
167 | GATCGGAC | 0.0221
168 | ACCTGAGG | -0.32
169 | GCGATAGA | 0.0104
170 | AAGATTAC | 0.00254
171 | AAGTATCA | 0.257
172 | ATCGTTGG | 0.222
